# The name of at least one read-out is uncertain.
# Test system: mouse adipocytes
# Test: Glucose uptake in mouse adipocytes (FFC)
# Assay type: cell-based
# Conditions: word printed in the EC50 (FFC) column
sequence,measurement,value
SLEEEWAQIQCEVWGRGCPSGGSTFEDYLHNVVFVPRPS [compound 658],EC50 (FFC): kind of activity in words,antag.
